Results from patent publication US11926640B2, “Prodrugs of glutamine analogs” (THE JOHNS HOPKINS UNIVERSITY, priority 2015, dated 2024).
Some of these results come from one statement about several compounds together.

How the values were obtained:
[1] = in vitro metabolic stability in human plasma; conditions: prodrug remaining within the 60 min incubation time
[2] = in vitro metabolic stability in monkey plasma; conditions: prodrug remaining within the 60 min incubation time

Compound | PLASMA STABILITY Human [1] | PLASMA STABILITY Monkey [2]
CC(C)OC(=O)[C@H](CCC(=O)C=[N+]=[N-])NC(=O)OC(C)OC(=O)C(C)(C)C (single isomer, unassigned) [Compound 14b, 1-Methylethyl 6-(1λ^5-diazynylidene)-N-({1-[(2,2-dimethylpropanoyl)oxy]ethoxy}carbonyl)-5-oxo-L-norleucinate] | 80-90% | 60-75%
CCOC(=O)[C@H](CCC(=O)C=[N+]=[N-])NC(=O)OC(C)OC(=O)C(C)(C)C (mixture of isomers) [Compound 32, Ethyl 6-diazo-2-(((1-(pivaloyloxy)ethoxy)carbonyl)amino)-5-oxohexanoate] | 80-90% | 60-75%
